Assay results published in article doi:10.1101/551317.
No constants are given. Whether binding was seen depends on the method and setting. Binding seen in cells or lysates may run through a third protein. Some results given as binding are weak or reduced against the parent protein; the word gives no strength. For some of these results: Where a sequence is shown, tags or fusion partners need not be part of it.

Chains of the proteins cited; added tags and fusions are not shown.
UniProt F4I735: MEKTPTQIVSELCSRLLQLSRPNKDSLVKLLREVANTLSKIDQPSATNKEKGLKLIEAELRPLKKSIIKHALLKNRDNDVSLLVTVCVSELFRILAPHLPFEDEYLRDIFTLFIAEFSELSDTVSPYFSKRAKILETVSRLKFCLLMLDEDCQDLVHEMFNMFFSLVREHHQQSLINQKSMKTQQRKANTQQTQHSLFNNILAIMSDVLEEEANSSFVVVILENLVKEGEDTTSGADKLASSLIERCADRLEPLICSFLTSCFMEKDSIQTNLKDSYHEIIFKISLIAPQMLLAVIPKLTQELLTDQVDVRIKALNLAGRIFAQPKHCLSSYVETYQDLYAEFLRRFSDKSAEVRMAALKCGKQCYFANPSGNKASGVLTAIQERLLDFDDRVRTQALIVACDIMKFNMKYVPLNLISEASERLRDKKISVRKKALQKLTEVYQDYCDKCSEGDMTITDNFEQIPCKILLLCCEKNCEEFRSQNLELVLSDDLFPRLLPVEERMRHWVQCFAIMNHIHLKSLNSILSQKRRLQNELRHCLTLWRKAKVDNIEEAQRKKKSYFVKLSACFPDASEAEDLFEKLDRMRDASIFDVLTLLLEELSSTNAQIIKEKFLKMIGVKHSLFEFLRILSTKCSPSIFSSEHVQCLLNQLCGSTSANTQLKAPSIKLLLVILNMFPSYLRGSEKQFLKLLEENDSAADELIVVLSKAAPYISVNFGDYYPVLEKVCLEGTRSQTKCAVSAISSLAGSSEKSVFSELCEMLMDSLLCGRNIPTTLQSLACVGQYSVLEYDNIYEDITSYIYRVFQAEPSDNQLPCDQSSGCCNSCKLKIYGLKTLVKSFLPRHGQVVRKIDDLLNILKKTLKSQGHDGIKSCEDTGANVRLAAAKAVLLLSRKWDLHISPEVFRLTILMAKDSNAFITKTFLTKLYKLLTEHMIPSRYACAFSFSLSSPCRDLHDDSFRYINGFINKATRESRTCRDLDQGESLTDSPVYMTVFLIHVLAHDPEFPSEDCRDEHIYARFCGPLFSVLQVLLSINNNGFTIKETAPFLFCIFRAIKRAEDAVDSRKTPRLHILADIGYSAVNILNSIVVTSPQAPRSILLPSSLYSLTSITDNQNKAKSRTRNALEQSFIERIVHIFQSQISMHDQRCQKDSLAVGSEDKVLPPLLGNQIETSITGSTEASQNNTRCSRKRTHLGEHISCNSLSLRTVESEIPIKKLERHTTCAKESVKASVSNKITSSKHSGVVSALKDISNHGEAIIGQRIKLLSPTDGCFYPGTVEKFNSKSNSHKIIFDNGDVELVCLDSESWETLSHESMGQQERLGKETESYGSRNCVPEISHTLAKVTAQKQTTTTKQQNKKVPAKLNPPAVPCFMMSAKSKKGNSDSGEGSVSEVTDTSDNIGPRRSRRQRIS
UniProt Q9FGN8: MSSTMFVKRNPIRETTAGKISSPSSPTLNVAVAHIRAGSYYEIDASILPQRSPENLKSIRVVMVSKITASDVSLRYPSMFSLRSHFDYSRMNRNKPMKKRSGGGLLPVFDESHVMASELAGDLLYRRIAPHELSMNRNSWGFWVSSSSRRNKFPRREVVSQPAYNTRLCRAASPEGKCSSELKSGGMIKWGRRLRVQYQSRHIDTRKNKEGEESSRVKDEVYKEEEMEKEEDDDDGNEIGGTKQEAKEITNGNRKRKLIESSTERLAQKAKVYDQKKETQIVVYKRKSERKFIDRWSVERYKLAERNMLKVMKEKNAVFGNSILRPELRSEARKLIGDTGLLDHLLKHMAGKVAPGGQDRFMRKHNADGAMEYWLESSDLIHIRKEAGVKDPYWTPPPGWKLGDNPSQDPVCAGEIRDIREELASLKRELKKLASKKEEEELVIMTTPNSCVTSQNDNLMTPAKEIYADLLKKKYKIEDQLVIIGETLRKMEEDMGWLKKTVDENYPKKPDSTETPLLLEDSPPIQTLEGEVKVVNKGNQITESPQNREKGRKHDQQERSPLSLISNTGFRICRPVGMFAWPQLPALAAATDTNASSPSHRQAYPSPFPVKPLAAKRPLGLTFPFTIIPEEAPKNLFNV

Tests used:
Assay in all cases: split reporter
[1] = target: PDS5B, BiFC fusion (Arabidopsis thaliana) (UniProt F4I735)
[2] = target: T1, PDS5C, BiFC fusion (Arabidopsis thaliana) (UniProt Q8GUP3)
T1 sequence: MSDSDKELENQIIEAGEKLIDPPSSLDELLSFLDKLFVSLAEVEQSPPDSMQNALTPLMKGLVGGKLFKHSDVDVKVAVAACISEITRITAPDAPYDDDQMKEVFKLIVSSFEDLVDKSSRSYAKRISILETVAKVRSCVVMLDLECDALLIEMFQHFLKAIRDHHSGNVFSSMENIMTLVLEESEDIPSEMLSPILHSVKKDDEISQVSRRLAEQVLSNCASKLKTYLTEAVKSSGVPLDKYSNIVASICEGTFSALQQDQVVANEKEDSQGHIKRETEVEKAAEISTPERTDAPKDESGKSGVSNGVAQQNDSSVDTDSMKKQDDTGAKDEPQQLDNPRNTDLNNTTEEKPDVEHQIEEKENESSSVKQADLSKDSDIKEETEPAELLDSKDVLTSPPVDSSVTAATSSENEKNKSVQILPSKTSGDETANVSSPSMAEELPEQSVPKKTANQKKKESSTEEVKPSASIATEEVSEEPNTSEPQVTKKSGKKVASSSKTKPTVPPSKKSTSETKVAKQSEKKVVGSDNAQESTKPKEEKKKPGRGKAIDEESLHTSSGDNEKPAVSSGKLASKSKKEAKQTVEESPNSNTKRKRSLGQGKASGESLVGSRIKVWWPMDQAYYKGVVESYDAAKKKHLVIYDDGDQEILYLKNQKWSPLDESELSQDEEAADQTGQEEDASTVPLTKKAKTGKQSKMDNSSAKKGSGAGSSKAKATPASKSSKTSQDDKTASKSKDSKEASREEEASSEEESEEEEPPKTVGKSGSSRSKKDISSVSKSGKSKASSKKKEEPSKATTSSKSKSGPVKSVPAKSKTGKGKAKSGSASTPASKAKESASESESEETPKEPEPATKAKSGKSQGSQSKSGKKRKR

[3] = target: T2, PDS5D, BiFC fusion (Arabidopsis thaliana) (UniProt A8MRD9)
T2 sequence: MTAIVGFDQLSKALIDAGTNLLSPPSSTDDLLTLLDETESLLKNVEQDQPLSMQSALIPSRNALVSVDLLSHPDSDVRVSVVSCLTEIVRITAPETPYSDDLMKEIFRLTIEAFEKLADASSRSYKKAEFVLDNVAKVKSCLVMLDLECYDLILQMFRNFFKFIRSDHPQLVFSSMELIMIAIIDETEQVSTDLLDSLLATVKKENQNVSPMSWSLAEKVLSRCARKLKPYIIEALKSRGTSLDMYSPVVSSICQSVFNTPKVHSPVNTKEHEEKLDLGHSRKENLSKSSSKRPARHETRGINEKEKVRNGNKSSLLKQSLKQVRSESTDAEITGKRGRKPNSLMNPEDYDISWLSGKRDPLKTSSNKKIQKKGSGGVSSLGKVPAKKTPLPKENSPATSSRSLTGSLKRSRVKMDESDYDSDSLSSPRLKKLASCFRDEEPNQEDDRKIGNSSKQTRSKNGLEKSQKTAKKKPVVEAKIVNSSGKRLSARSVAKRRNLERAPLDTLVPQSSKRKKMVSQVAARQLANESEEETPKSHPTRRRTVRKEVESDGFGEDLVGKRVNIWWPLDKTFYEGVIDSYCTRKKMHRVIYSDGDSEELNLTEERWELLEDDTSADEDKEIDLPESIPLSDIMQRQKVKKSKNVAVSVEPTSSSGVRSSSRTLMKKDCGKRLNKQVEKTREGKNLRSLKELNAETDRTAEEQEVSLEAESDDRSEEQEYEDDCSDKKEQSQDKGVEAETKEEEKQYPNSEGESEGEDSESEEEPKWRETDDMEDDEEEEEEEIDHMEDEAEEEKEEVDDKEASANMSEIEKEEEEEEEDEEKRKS

[4] = target: T3, PDS5E, BiFC fusion (Arabidopsis thaliana) (UniProt Q9S9P0)
T3 sequence: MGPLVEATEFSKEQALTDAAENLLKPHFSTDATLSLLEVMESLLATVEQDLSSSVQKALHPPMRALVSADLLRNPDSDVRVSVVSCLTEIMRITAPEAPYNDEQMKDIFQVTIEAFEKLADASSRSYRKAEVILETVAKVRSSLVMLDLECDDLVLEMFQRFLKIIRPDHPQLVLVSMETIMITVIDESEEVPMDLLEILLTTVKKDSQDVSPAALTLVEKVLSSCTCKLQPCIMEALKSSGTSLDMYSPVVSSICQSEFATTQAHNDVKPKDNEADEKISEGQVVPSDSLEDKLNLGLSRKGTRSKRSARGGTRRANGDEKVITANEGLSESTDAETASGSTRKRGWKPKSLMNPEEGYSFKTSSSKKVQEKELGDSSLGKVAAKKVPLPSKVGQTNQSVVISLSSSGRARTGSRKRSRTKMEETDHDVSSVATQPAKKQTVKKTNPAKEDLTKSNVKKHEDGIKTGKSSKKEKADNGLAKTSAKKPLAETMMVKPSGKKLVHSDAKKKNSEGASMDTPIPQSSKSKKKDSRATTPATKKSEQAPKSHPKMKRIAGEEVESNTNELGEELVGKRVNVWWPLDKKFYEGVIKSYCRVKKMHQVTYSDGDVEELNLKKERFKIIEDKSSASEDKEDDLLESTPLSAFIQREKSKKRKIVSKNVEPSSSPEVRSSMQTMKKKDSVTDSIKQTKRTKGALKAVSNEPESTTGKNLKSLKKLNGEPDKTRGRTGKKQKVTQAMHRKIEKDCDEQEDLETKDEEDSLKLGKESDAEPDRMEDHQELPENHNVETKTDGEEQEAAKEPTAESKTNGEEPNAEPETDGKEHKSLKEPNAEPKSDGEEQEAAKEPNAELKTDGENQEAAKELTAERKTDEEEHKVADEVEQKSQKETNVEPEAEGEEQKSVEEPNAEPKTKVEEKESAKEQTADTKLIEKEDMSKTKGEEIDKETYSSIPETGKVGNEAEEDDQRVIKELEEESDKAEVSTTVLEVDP

With “SWI1, BiFC fusion (from UniProt Q9FGN8 1-639)” the binding [1] was “binds weakly”, the binding [2] was “binds” and the binding [3] was “binds weakly”. The binding [4] was “binds”.
